Measurements taken from PubChem BioAssay AID651564 (Sanford-Burnham Center for Chemical Genomics, 2012).
Shown are results outside the selection of hits, which stands elsewhere. Activity calls are given as the source filed them. No stated cut-off is given here; in the data, active means IC50 below about 80 µM; inactive means the rest.

Experiment: fluorescent counter-screen in isolated mitochondria, dose response, counter-screen for MPTP inhibitor project, biochemical, fluorescence, uHTS hits (AID 651564)
Details: isolated mitochondria counterscreen, fluorescence read-out

Question: Which IC50 does the source give for CNCCCC12CCC(c3ccccc31)c1ccccc12 here?
Answer: inactive: > 80 µM
